Data as given in PubChem BioAssay AID504808 (Drosophila RNAi Screening Center, 2011)
In all, the deposit lists about 21,000 reagents; this is a random part of those with a known target gene and a result. In the full data, 18 (0.084%) got an active call. 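Raw counts without plate normalisation, one of two replicates; the ratio scores behind the calls were not deposited.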 A plus sign joins genes that one reagent is predicted to hit. The record does not give: the amount of reagent, the time to read-out.

- Assay: 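Genes whose loss lifts activity of an E2F-responsive reporter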 (primary screen)
- Cell system: Drosophila S2 cells
- Knock-down reagent: long dsRNA against Drosophila genes
- Measured: 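Firefly luciferase driven by E2F sites, normalised to Renilla luciferase on the same minimal promoter, measured by plate reader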
- Scale: E2F firefly: higher = more E2F reporter activity; Renilla normaliser: higher = more normaliser reporter signal
- Call rule: 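Called active if the normalised E2F reporter went up by over 50%; the cutoff is arbitrary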

| Gene | DRSC id | E2F firefly, rep 1 | Renilla normaliser, rep 1 | activity call |
| --- | --- | --- | --- | --- |
| CG14803 | DRSC18556 | 80319 | 4029 | inactive |
| CG33255 (retired record) + hpRNA:CR32205 | DRSC09610 | 87488 | 3389 | inactive |
| CG33255 (retired record) + hpRNA:CR32205 | DRSC09611 | 92540 | 4092 | inactive |
| Rdh1 (Retinol dehydrogenase 1) | DRSC06812 | 3312 | 177 | inactive |
| LysX (Lysozyme X) | DRSC08678 | 90278 | 3852 | inactive |
| beat-VII (beaten path VII) | DRSC13780 | 90683 | 2477 | inactive |
| beat-VII (beaten path VII) | DRSC14743 | 1.22e5 | 6197 | inactive |
| beat-VII (beaten path VII) | DRSC14744 | 1.17e5 | 5779 | inactive |
| Upf3 | DRSC04092 | 82049 | 3516 | inactive |
| PIG-K (Phosphatidylinositol glycan anchor biosynthesis class K) | DRSC18496 | 1.35e5 | 6682 | inactive |
| rudhira | DRSC19821 | 6015 | 804 | inactive |
| Fhos (Formin homology 2 domain containing) | DRSC08943 | 1.23e5 | 4897 | inactive |
| Fhos (Formin homology 2 domain containing) | DRSC10545 | 79125 | 4003 | inactive |
| Fhos (Formin homology 2 domain containing) | DRSC10546 | 76390 | 3560 | inactive |
| Fhos (Formin homology 2 domain containing) | DRSC10547 | 1.09e5 | 4344 | inactive |
| CG33627 | DRSC05343 | 1.16e5 | 4369 | inactive |
| CG13898 | DRSC08368 | 94137 | 3938 | inactive |
| CG13282 | DRSC02254 | 98230 | 4501 | inactive |
| CG9119 | DRSC08620 | 89368 | 3612 | inactive |
| CG13299 | DRSC09973 | 97854 | 4086 | inactive |
| Cpr65Av (Cuticular protein 65Av) | DRSC09727 | 97145 | 3555 | inactive |
| l(1)G0289 (lethal (1) G0289) | DRSC18215 | 8502 | 700 | inactive |
| Elp2 (Elongator complex protein 2) | DRSC06095 | 3008 | 177 | inactive |
| zyd (zydeco) | DRSC20716 | 1.27e5 | 6948 | inactive |
| ppk16 (pickpocket 16) | DRSC02736 | 1.35e5 | 5195 | inactive |
| sli (slit) | DRSC07684 | 1.51e5 | 5346 | inactive |
| CG17230 | DRSC15203 | 67279 | 2935 | inactive |
| LTV1 (LTV1 ribosome biogenesis factor) | DRSC05951 | 2415 | 216 | inactive |
| CG12608 | DRSC19472 | 7894 | 808 | inactive |
| sut1 (sugar transporter 1) | DRSC07700 | 2825 | 189 | inactive |
| Patr-1 (Protein associated with topo II related - 1) | DRSC14159 | 72660 | 4607 | inactive |
| Drsl4 (Drosomycin-like 4) | DRSC08034 | 1.35e5 | 3961 | inactive |
| Pi4KIIalpha (Phosphatidylinositol 4-kinase II alpha) | DRSC12322 | 71516 | 3489 | inactive |
| Pi4KIIalpha (Phosphatidylinositol 4-kinase II alpha) | DRSC12323 | 1.23e5 | 5150 | inactive |
| Ptp52F (Protein tyrosine phosphatase 52F) | DRSC06717 | 1.52e5 | 4553 | inactive |
| Gcat (Glycine C-acetyltransferase) | DRSC09719 | 1.21e5 | 7694 | inactive |
| CG11170 | DRSC04090 | 71799 | 3610 | inactive |
| CG9062 | DRSC07327 | 1.10e5 | 4483 | inactive |
| l(2)41Ab (lethal (2) 41Ab) | DRSC21007 | 87019 | 2754 | inactive |
| CG8939 | DRSC20127 | 7019 | 844 | inactive |
| AdoR (Adenosine receptor) | DRSC16556 | 82670 | 5478 | inactive |
| CG32986 | DRSC02509 | 1.47e5 | 4971 | inactive |
| CG6726 | DRSC16101 | 1.15e5 | 6201 | inactive |
| wrm1 (wurmchen 1) | DRSC11007 | 61383 | 3038 | inactive |
| Twdlalpha (Tweedlealpha) | DRSC19914 | 1.37e5 | 6283 | inactive |
| Cpr50Ca (Cuticular protein 50Ca) | DRSC05454 | 1.23e5 | 4981 | inactive |
| Cpr50Ca (Cuticular protein 50Ca) | DRSC06372 | 89781 | 3596 | inactive |
| Cpr50Ca (Cuticular protein 50Ca) | DRSC06375 | 1.03e5 | 4685 | inactive |
| CG6230 | DRSC01989 | 85320 | 4196 | inactive |
| Mst98Cb (Male-specific RNA 98Cb) | DRSC16750 | 1.15e5 | 5893 | inactive |
| CG8892 | DRSC03121 | 94531 | 4197 | inactive |
| dany (distal antenna-young) | DRSC04141 | 1.02e5 | 4025 | inactive |
| CG12523 | DRSC09895 | 1.55e5 | 7428 | inactive |
| CG13045 | DRSC09926 | 1.55e5 | 7879 | inactive |
| Rsbp15 (Radial spoke binding protein 15) | DRSC14176 | 1.40e5 | 6522 | inactive |
| CG6839 | DRSC10723 | 74028 | 3277 | inactive |
| SdhAL (Succinate dehydrogenase, subunit A (flavoprotein)-like) | DRSC10539 | 77178 | 3583 | inactive |
| Atg4b (Autophagy-related 4b) | DRSC15988 | 77773 | 3484 | inactive |
| Usp16-45 (Ubiquitin specific protease 16/45) | DRSC18352 | 7867 | 688 | inactive |
| insc (inscuteable) | DRSC04695 | 97344 | 4721 | inactive |
| Gpdh2 (Glycerol-3-phosphate dehydrogenase 2) | DRSC04346 | 1.06e5 | 4692 | inactive |
| Desi (Desiccate) | DRSC14909 | 1.57e5 | 7165 | inactive |
| B4 | DRSC01868 | 77044 | 3624 | inactive |
| B4 | DRSC03175 | 1.13e5 | 4723 | inactive |
| kn (knot) | DRSC05505 | 1.39e5 | 4990 | inactive |
| kn (knot) | DRSC05507 | 1.35e5 | 4691 | inactive |
| kn (knot) | DRSC06196 | 92875 | 4157 | inactive |
| kn (knot) | DRSC07637 | 1.01e5 | 4332 | inactive |
| Ravus | DRSC15126 | 96450 | 4934 | inactive |
| Fst (Frost) | DRSC16491 | 75383 | 3136 | inactive |
| CG6195 | DRSC15989 | 1.57e5 | 7856 | inactive |
| SmD3 (Small ribonucleoprotein particle protein SmD3) | DRSC07553 | 67421 | 3847 | inactive |
| CG9550 | DRSC03262 | 1.54e5 | 5282 | inactive |
| CG13360 | DRSC18536 | 1867 | 776 | inactive |
| Rh4 (Rhodopsin 4) | DRSC11268 | 1.75e5 | 9327 | inactive |
| RunxB (Runt related B) | DRSC20395 | 80073 | 2587 | inactive |
| RunxB (Runt related B) | DRSC20525 | 1.25e5 | 4572 | inactive |
| RunxB (Runt related B) | DRSC20526 | 95023 | 5246 | inactive |
| DNAlig4 (DNA ligase 4) | DRSC19436 | 1.21e5 | 6114 | inactive |
| Vha100-4 (Vacuolar H[+] ATPase 100kD subunit 4) | DRSC16282 | 1.36e5 | 7357 | inactive |
| Acsx1R (Acyl-CoA synthetase X1 R) | DRSC14339 | 1.32e5 | 6600 | inactive |
| CG42709 | DRSC10277 | 83023 | 3658 | inactive |
| CG10680 | DRSC02093 | 93500 | 4321 | inactive |
| RpL31 (Ribosomal protein L31) | DRSC06716 | 94473 | 5673 | inactive |
| wek (weckle) | DRSC03561 | 86235 | 3680 | inactive |
| CG10543 | DRSC04081 | 86907 | 4310 | inactive |
| Septin1 (Septin 1) | DRSC20573 | 1.24e5 | 6702 | inactive |
| Est-6 (Esterase 6) | DRSC11162 | 1.26e5 | 7225 | inactive |
| CG40005 (retired record) + cta | DRSC03763 | 1.31e5 | 4326 | inactive |
| Pkc53E (Protein C kinase 53E) | DRSC05636 | 1.79e5 | 5862 | inactive |
| Pkc53E (Protein C kinase 53E) | DRSC07510 | 69115 | 3971 | inactive |
| vig (vasa intronic gene) | DRSC03630 | 1.08e5 | 4837 | inactive |
| vig (vasa intronic gene) | DRSC03631 | 77135 | 3415 | inactive |
| Zmynd8 (Zinc finger MYND-type containing 8) | DRSC15310 | 1939 | 996 | inactive |
| Mip (Myoinhibiting peptide precursor) | DRSC10639 | 64128 | 3288 | inactive |
| CkIIalpha-i1 (CKII-alpha subunit interactor-1) | DRSC11115 | 1.87e5 | 7380 | inactive |
| CG17764 | DRSC18135 | 85177 | 4766 | inactive |
| CG15136 | DRSC02436 | 1.02e5 | 3707 | inactive |
| Polr1E (RNA polymerase I subunit E) | DRSC14506 | 1.26e5 | 7555 | inactive |
| Polr1E (RNA polymerase I subunit E) | DRSC15358 | 68197 | 3077 | inactive |
| pasi1 (pasiflora 1) | DRSC16299 | 1.23e5 | 5962 | inactive |
| pkaap | DRSC01925 | 1.01e5 | 4500 | inactive |
| Dnaaf5 (Dynein axonemal assembly factor 5) | DRSC13032 | 95204 | 3296 | inactive |
| Alg2 (ALG2, alpha-1,3/1,6-mannosyltransferase) | DRSC08298 | 86315 | 3519 | inactive |
| Osbp (Oxysterol binding protein) | DRSC16779 | 82394 | 3891 | inactive |
| CG16894 | DRSC06634 | 1.54e5 | 5522 | inactive |
| Nlg2 (Neuroligin 2) | DRSC03578 | 1.42e5 | 4722 | inactive |
